{
  "source": "paper doi:10.1101/2024.10.01.615909",
  "about": "(bioRxiv, 2024)",
  "biological_target": "taxol-stabilized microtubules",
  "test": "co-sedimentation",
  "note": "Results are given in words; binding and its absence hold for the method and conditions named. In cells and extracts the contact can be indirect. Binding calls can cover weak binding; strength is not graded here. Tags and fused reporters may be left off the sequences shown.",
  "data": [
    {"binder": "His8-SUMO (HS)-IQD2 (natural protein) MGKKAKWFSSVKKAFSPDSKKSKQKLAEGQNGVISNPPVVDNVRQSSSSPPPALAPREVRVAEVIVERNRDLSPPSTADAVNVTATDVPVVPSSSAPGVVRRATPTRFAGKSNEEAAAILIQTIFRGYLARRALRAMRGLVRLKLLMEGSVVKRQAANTLKCMQTLSRVQSQIRARRIRMSEENQARQKQLLQKHAKELAGLKNGDNWNDSIQSKEKVEANLLSKYEATMRRERALAYSYSHQQNWKNNSKSGNPMFMDPSNPTWGWSWLERWMAGRPLESSEKEQSNSNNDNAASVKGSINRNEAAKSLTRNGSTQPNTPSSARGTPRNKNSFFSPPTPSRLNQSSRKSNDDDSKSTISVLSERNRRHSIAGSSVRDDESLAGSPALPSYMVPTKSARARLKPQSPLGGTTQENEGFTDKASAKKRLSYPTSPALPKPRRFSAPPKVESGGVTVTNGAGS", "values": [
      {"measurement": "binding", "value": "binds"}
    ]}
  ]
}
